Laboratory results reported in article PMC5472440.
No constants are given. Whether binding was seen depends on the method and setting.

Amino acid sequences for entries named in this document (tags omitted).
UniProt Q96EZ8: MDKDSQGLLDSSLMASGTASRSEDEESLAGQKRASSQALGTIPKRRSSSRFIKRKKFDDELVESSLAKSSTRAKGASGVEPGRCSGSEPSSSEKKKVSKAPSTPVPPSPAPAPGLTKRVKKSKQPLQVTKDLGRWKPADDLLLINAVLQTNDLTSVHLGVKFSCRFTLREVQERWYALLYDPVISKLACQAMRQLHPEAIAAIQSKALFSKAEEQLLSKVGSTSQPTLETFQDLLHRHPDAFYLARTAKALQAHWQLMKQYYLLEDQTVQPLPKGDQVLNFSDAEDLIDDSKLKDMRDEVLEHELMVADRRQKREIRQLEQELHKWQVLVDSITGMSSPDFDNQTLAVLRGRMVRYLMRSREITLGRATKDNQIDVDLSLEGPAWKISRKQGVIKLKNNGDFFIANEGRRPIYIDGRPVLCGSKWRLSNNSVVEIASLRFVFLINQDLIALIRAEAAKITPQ

Biological target: full length human Ino80 subunit (human) (UniProt Q9ULG1)
Assay: co-purification of a recombinant complex; Coomassie-stained SDS gel of the purified full length recombinant human INO80 complex; subunit identities confirmed by Western blotting; bait not stated

In the case of MCRS1 (from UniProt Q96EZ8 1-462), the binding is reported as “no binding”.
